This is one part of the list.

Amino acid sequences for entries named in this document (tags omitted).
UniProt Q0JBA9, entry or part of it: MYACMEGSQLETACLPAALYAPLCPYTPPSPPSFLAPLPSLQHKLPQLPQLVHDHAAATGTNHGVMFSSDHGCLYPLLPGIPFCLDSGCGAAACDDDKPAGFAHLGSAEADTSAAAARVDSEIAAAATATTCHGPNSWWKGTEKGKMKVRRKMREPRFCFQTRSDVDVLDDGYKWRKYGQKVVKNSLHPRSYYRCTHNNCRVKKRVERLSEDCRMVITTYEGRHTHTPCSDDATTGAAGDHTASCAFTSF

The test has as its target OsWRKY34 (Oryza sativa, UniProt Q0JBA9 1-250). The experiment in a line: protein-binding microarray (RPBM); PBS, 2% BSA, 51.3 ng/ul salmon testes DNA, 50 uM zinc acetate, 200 nM TF, 25 C, 1 h; high values mean tight binding. Conditions: protein: recombinant; tags: N-terminal polyhistidine and DsRed monomer fusion (pET32a); label: CyDye5-dUTP incorporated in the synthesized complementary strand; 3' TTTTT single-stranded linker to array surface; dsDNA, one strand shown. The gist of the method: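 Transcription factors were made in E. coli BL21-CodonPlus as N-terminal fusions to a polyhistidine tag and DsRed, then purified on Ni–NTA. After primer extension with Cy5-dUTP and blocking with 2% BSA, a custom Agilent array was exposed for 1 h at 25 °C to 200 nM protein in PBS, 2% BSA, salmon testes DNA and 50 µM zinc acetate. Washed arrays were scanned on an Axon 4000B, and the binding signal is per-feature fluorescence intensity in arbitrary units.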
Regarding “GTAGCTTAAGTTTTTCTTCCCGATTCTATTCCTAGGCCGCCGGAGTCACCTAGTGCAG”, the binding signal was 9180 fluorescence intensity (a.u.). Then “GATTGCTCCAACTGCCTCCAGGGTTCTAAACATATATGTTCGGAGTCACCTAGTGCAG”, with 10500 fluorescence intensity (a.u.); and “TCTAGATTTCTCTCTCTCTCATGCACAATTGCACAGTACACGGAGTCACCTAGTGCAG”, with 8370 fluorescence intensity (a.u.). Turning to “TCTTGTGCAACCTTGGTCGACAGGCTTGTTGTTATAGCTCCGGAGTCACCTAGTGCAG”, the binding signal is 8430 fluorescence intensity (a.u.). To “CACCACCACCTCCACCTCCGCCGTGCGGACGCCGCCGGCTCGGAGTCACCTAGTGCAG” belongs 8850 fluorescence intensity (a.u.). To “TCCGGTTCTCCATTGTCCATTCACCCGGCCCATCTGCAACCGGAGTCACCTAGTGCAG” belongs 12000 fluorescence intensity (a.u.); to “CTACTCGCTGCTCGCCACCGCGCTGGCCCTCCCCGACGACCGGAGTCACCTAGTGCAG”, 9500 fluorescence intensity (a.u.); to “CCGTCGGCGACGTGGTGTCCTGCTGCTTGACATGTTTTTTCGGAGTCACCTAGTGCAG”, 9540 fluorescence intensity (a.u.). Turning to “CCCCACGCCGCAATCTCGCGAATCCCACCGCTTCCGTTTCCGGAGTCACCTAGTGCAG”, the binding signal was 8700 fluorescence intensity (a.u.). To “CCTCCACTTGGCTCATTTAGCATCTGCCGCAACATTAAGACGGAGTCACCTAGTGCAG” belongs 9210 fluorescence intensity (a.u.). To “TGCTTAGGTTGGTTGCACTGGGGCGTGTCCTGTGGCCTTTCGGAGTCACCTAGTGCAG” belongs 8540 fluorescence intensity (a.u.). Turning to “CTTATATTGTACTCCAAGTCTCTATCTCCTATATATGTACCGGAGTCACCTAGTGCAG”, the binding signal was 9220 fluorescence intensity (a.u.). Regarding “GCCCTGATTATATAATCTTCCTCGTTAATCACAGTTTCTACGGAGTCACCTAGTGCAG”, the binding signal was 11000 fluorescence intensity (a.u.). To “AGGATATACTACACCATAAGGTACATATACCTCTCTATACCGGAGTCACCTAGTGCAG” belongs 8680 fluorescence intensity (a.u.); to “CTATTTTTTCTTTCTTGTTGTTGAAATGTCATCTTCTCAGCGGAGTCACCTAGTGCAG”, 8800 fluorescence intensity (a.u.). To “GGCGCCGTCGTCTTCTTTCCCACGCCGCCGCCGCCGTCAACGGAGTCACCTAGTGCAG” belongs 8600 fluorescence intensity (a.u.); to “CAATTTAATTTACTCTCTCCTGCATATGCCAAATGCTTCTCGGAGTCACCTAGTGCAG”, 8470 fluorescence intensity (a.u.). Then “CCTACATGTCATTGAGCTTTTTATTTTTGATGTTGTCTTGCGGAGTCACCTAGTGCAG”, with 9020 fluorescence intensity (a.u.). For “GGAGGAGGAGAAGCTTCTAGAAGGGGAGCGGGGCGGCATGCGGAGTCACCTAGTGCAG”, the binding signal is 8690 fluorescence intensity (a.u.). As to “GCGCGGATAAGGGGTGTGTGTTTGGTTGGCGTCTTGGCGACGGAGTCACCTAGTGCAG”, the binding signal is 12000 fluorescence intensity (a.u.). In the case of “TATATCTATGCGACCATGCCCCATTTGCTCGCTGTTTAACCGGAGTCACCTAGTGCAG”, the binding signal is 8020 fluorescence intensity (a.u.). Then “ACATCCTTCTGGGTTGATTTTTTTCTATAGAGGGGTAGGTCGGAGTCACCTAGTGCAG”, with 8590 fluorescence intensity (a.u.); and “TCTCGAAATTTCCCAACCGCTCGCTCGCCCGCCTCGTCTTCGGAGTCACCTAGTGCAG”, with 9140 fluorescence intensity (a.u.).

For the sequence “GAACCAACCAACCACGCGCGCACGCCCCGCGTCTCGTCGCCGGAGTCACCTAGTGCAG”, the binding signal is 8550 fluorescence intensity (a.u.). To “TTTTGCCACGGTTTATTGTTGAAACAATTTGTCCAAATTTCGGAGTCACCTAGTGCAG” belongs 8610 fluorescence intensity (a.u.); to “ACGCAATCTGTGTAATTAGTTATTTTTTCGTTTATATTTACGGAGTCACCTAGTGCAG”, 8710 fluorescence intensity (a.u.); to “CTTCCGGCCGACCTTACACCAACCCGACGACCAAGTTGCACGGAGTCACCTAGTGCAG”, 8190 fluorescence intensity (a.u.). To “TCGTTTTCCGCATGCACGTTTTTTAAACTGCTAAATGATGCGGAGTCACCTAGTGCAG” belongs 9790 fluorescence intensity (a.u.).

For the sequence “CTGCAACTCTACTGTATGGAAAATCATGCCCGATCGATGCCGGAGTCACCTAGTGCAG”, the binding signal is 8450 fluorescence intensity (a.u.). Then “CTCGATCCAGTCCAGTGCTTTGGCCCAACACATCAACGTTCGGAGTCACCTAGTGCAG”, with 8710 fluorescence intensity (a.u.); and “AGCCGACGAGACGGGTGGTGGGGCGGTGGCGGCCGAGGATCGGAGTCACCTAGTGCAG”, with 11600 fluorescence intensity (a.u.); and “CCAACTTTTCCATCACATCGTTCCAATTTCAACCAAACTTCGGAGTCACCTAGTGCAG”, with 8110 fluorescence intensity (a.u.). Then “CACTGAATTTTGGTTTTGATTTCTTTTGTACCTGCTGACACGGAGTCACCTAGTGCAG”, with 8920 fluorescence intensity (a.u.); and “CAATAGCTCATCACCATTGCATAATTAATCCAAATCAATCCGGAGTCACCTAGTGCAG”, with 9230 fluorescence intensity (a.u.). To “TGTTCTTCGAGGAGCACGACGACTACAAGTTCAACGGCCTCGGAGTCACCTAGTGCAG” belongs 9140 fluorescence intensity (a.u.).

Turning to “CTTTCTAGTATTGCTCGTATTCATATAGATGTTAATAATCCGGAGTCACCTAGTGCAG”, the binding signal is 9370 fluorescence intensity (a.u.).

“CCGCCGCTCCACCGTCTCAGCCATCGCCACCGCCCGCAGCCGGAGTCACCTAGTGCAG”: the binding signal is 8400 fluorescence intensity (a.u.). On to “TGCACCGGTTTTGATAGCTGAGGGACCCGTTGTATCTAGTCGGAGTCACCTAGTGCAG”, for which the binding signal was 8690 fluorescence intensity (a.u.). To “CGTACAGACAATTTCCATATGCCAACACTGCGGCCCGACACGGAGTCACCTAGTGCAG” belongs 9040 fluorescence intensity (a.u.); to “ATGTCACGTCCTTACATGCTTTGTTGCATGCTGCCATTATCGGAGTCACCTAGTGCAG”, 9120 fluorescence intensity (a.u.).

Take “CTAGCTTTCACATCCTCGCTGGATTTTCTCGCGCATACCACGGAGTCACCTAGTGCAG”: the binding signal was 8970 fluorescence intensity (a.u.). For “AGTAAGTGCCATCCTTCACCATTTCGTTCTAGCTCTGTCCCGGAGTCACCTAGTGCAG”, the binding signal is 9440 fluorescence intensity (a.u.). To “TCTATTAGAACATATGTTTTTGGTTGATATTGTTAGATTCCGGAGTCACCTAGTGCAG” belongs 8080 fluorescence intensity (a.u.); to “GTCATTTAAAACCAATCACATCGCCTCTTGTGCCATTATCCGGAGTCACCTAGTGCAG”, 9030 fluorescence intensity (a.u.); to “ATTACTCCGTACGCAGCATTCTCCCTCGTGTCATTTTCGTCGGAGTCACCTAGTGCAG”, 8530 fluorescence intensity (a.u.). In the case of “ACAGGGCCGTAATCTAGCCCACTTGCACTATTGCAACTTGCGGAGTCACCTAGTGCAG”, the binding signal was 8910 fluorescence intensity (a.u.).

As to “ATGACTCACCTCGTTTTGTGTATCTTCCCAATCTCCTCTACGGAGTCACCTAGTGCAG”, the binding signal was 9960 fluorescence intensity (a.u.). Then “CCACCCGCATCCGCGCGCGCTGCTCCGCCTGCCGCCGGCCCGGAGTCACCTAGTGCAG”, with 9470 fluorescence intensity (a.u.); and “CGCGTCGACGGCGGGGATGGGGACGGGTTGGTTGATCTTTCGGAGTCACCTAGTGCAG”, with 10900 fluorescence intensity (a.u.).

Take “TTCCCCATGAGCAAGCTCCTCCACTGCGCCACCGTCTCCTCGGAGTCACCTAGTGCAG”: the binding signal was 9080 fluorescence intensity (a.u.). To “GGCCGGCGGGTGGCCGGGTGGGGAGGAGGTCGGCAGGGCGCGGAGTCACCTAGTGCAG” belongs 9780 fluorescence intensity (a.u.); to “GGTGAAGCGAGGTTCTGGACAAGGGGATGTGTGTGGGAGTCGGAGTCACCTAGTGCAG”, 8430 fluorescence intensity (a.u.). To “TAATCCTGTGTCCGTCATTGAGCATGTGTGTATGAATCAACGGAGTCACCTAGTGCAG” belongs 9290 fluorescence intensity (a.u.). As for “TCTTCCGCCGCACTTTTAGATCATCACACATCACCGAGATCGGAGTCACCTAGTGCAG”, the binding signal was 8070 fluorescence intensity (a.u.).

The values above are taken from paper PMC7819943, “Rice protein-binding microarrays: a tool to detect cis-acting elements near promoter regions in rice”.
